{"source": "patent US20030100605A1", "about": "“Methods of treating cancer with angiogenesis inhibitors” (priority 2001, published 2003)", "test_system": "B220+/Tg IgM+ donor-derived B cells in spleen and BM", "assay": "Lymphoid engraftment after stem cell rescue by flow cytometry", "format": "in vivo, FVB mice", "conditions": "for Bone Marrow B220+/IgM+ / Spleen B220+/IgM+: mean ± SEM", "key": {"[1]": {"conditions": "Day 28 post-BMT, all TNP-470 dose levels"}}, "data": [{"smiles": "CO[C@@H]1[C@H](OC(=O)NC(=O)CCl)CC[C@@]2(CO2)[C@H]1[C@]1(C)O[C@@H]1CC=C(C)C", "note": "[TNP-470]", "values": [{"measurement": "Bone Marrow B220+/IgM+", "setting": "[1]", "value": "22% ± 1.8"}, {"measurement": "Spleen B220+/IgM+", "setting": "[1]", "value": "14% ± 1.4"}, {"measurement": "Lymphoid engraftment versus saline and no-pump controls", "setting": "continuous infusion 10 mg/kg/week, day 28", "value": "no differences were observed"}, {"measurement": "Bone Marrow B220+/IgM+", "setting": "dose level 3, Day 21", "value": "27% ± 4.1"}, {"measurement": "Spleen B220+/IgM+", "setting": "dose level 3, Day 21", "value": "13% ± 2.8"}, {"measurement": "Bone Marrow B220+/IgM+", "setting": "dose level 3, Day 24", "value": "25% ± 2.7"}, {"measurement": "Spleen B220+/IgM+", "setting": "dose level 3, Day 24", "value": "31% ± 5.4"}, {"measurement": "Bone Marrow B220+/IgM+", "setting": "dose level 3, Day 28", "value": "28% ± 4.2"}, {"measurement": "Spleen B220+/IgM+", "setting": "dose level 3, Day 28", "value": "11% ± 2.0"}]}]}
